# Test results taken from the supplement of paper PMC12819154, “High-throughput peptide-centric local stability assay extends protein–ligand identification to membrane proteins, tissues and bacteria” (Nature Structural & Molecular Biology, 2025).
# Protein sequences, listed by entry. Tags and fused reporters are not part of them. Lines headed by an entry give the natural chain unless they say otherwise; changes in a name come on top.
# UniProt Q8R146: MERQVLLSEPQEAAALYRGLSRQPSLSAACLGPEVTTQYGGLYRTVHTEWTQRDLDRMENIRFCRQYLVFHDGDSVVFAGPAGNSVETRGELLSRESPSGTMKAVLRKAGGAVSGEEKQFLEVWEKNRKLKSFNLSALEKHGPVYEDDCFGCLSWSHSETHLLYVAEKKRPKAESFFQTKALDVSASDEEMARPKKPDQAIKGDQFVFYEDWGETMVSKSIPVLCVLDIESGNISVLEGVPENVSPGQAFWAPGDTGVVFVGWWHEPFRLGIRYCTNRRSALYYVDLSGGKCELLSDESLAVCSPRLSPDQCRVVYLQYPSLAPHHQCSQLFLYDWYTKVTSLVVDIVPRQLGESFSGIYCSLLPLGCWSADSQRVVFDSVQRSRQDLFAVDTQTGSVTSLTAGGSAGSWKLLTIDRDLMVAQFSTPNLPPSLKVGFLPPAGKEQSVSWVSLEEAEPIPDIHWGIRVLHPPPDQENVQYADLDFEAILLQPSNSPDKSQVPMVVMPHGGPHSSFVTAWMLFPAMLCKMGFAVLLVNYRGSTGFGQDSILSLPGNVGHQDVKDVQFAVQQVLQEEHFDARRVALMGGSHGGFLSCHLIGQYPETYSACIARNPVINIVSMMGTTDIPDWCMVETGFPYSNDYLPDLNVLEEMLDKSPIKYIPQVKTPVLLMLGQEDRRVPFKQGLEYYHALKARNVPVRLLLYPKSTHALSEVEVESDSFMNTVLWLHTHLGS
# UniProt Q8K201: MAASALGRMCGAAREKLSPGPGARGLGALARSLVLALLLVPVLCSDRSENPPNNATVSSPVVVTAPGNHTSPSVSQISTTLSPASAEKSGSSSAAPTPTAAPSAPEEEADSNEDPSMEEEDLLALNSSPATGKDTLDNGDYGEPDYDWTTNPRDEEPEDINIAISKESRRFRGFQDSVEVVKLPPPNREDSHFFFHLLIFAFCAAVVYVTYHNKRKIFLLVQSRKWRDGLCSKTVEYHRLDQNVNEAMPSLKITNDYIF
# UniProt Q8R0F6: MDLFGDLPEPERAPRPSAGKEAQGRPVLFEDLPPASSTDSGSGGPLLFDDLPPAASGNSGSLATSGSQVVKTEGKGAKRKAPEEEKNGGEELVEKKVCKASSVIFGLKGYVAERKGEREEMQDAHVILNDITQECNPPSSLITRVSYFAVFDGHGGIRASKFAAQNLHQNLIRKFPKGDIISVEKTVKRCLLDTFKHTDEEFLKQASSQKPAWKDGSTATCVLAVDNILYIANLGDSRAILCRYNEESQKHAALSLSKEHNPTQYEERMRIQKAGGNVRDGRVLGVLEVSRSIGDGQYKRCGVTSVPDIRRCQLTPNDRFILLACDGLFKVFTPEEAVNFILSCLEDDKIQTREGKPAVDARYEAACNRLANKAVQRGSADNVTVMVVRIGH
# UniProt Q8CGF5: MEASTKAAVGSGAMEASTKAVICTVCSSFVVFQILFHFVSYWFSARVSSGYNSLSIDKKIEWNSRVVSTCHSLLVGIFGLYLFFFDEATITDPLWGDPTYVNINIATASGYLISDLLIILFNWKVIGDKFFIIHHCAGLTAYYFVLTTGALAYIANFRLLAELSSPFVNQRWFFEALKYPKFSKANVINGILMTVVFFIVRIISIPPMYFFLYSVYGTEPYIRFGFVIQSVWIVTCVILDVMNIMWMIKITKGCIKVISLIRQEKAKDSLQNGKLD
# UniProt Q8VBT0: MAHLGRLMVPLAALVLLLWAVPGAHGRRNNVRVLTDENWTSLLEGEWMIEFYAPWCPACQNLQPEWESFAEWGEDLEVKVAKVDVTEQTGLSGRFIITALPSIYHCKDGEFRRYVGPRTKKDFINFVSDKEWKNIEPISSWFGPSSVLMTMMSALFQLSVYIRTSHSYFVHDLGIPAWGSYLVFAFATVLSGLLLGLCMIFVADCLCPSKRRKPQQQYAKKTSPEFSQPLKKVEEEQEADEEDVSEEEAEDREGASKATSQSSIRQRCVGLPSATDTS
# UniProt Q8R3F5: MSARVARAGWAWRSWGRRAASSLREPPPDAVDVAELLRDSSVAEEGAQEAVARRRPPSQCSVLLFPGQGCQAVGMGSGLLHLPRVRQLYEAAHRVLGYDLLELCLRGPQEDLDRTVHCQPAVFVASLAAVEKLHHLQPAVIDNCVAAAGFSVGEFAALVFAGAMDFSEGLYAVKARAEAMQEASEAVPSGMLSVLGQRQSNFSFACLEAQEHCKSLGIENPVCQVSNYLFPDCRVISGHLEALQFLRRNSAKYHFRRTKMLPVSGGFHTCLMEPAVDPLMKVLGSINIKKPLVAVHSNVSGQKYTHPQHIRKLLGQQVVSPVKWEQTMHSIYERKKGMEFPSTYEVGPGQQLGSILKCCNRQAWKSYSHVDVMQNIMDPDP
# UniProt Q8JZN5: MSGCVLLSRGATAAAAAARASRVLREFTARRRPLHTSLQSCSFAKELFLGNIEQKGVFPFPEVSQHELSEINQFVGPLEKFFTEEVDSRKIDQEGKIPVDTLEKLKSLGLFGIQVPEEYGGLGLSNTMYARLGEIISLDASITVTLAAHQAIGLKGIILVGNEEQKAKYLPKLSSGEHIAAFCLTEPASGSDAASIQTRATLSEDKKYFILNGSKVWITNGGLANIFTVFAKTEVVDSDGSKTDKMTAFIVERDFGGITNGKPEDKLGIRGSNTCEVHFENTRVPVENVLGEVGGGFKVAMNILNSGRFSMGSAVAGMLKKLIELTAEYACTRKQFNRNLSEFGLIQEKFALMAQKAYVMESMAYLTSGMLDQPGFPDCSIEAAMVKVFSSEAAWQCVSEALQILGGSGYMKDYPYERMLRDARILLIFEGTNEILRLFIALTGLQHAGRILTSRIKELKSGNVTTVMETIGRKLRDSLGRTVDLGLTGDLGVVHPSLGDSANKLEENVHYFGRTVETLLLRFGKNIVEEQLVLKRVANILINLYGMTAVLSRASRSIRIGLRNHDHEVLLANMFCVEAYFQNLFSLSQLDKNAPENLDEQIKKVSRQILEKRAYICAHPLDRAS
# UniProt Q8K0C9: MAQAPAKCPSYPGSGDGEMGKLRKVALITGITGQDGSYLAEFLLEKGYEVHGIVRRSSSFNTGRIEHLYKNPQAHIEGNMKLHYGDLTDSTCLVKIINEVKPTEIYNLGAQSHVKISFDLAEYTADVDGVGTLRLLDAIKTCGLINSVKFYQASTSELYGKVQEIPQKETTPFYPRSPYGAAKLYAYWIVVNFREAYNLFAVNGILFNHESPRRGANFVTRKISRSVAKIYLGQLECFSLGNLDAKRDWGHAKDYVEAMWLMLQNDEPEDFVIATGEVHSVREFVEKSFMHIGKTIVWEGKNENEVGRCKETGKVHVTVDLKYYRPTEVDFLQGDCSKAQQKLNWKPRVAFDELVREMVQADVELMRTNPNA
# UniProt Q8R1T4: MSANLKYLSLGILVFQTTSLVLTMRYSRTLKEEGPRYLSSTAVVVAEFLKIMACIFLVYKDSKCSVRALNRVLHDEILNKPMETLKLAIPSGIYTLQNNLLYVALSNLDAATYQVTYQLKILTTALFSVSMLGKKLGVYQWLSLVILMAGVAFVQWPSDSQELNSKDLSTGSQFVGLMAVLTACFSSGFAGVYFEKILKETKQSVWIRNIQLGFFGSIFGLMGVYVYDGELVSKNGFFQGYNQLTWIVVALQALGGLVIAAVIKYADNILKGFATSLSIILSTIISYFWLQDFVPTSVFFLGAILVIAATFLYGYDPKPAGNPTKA
# UniProt Q8JZZ0: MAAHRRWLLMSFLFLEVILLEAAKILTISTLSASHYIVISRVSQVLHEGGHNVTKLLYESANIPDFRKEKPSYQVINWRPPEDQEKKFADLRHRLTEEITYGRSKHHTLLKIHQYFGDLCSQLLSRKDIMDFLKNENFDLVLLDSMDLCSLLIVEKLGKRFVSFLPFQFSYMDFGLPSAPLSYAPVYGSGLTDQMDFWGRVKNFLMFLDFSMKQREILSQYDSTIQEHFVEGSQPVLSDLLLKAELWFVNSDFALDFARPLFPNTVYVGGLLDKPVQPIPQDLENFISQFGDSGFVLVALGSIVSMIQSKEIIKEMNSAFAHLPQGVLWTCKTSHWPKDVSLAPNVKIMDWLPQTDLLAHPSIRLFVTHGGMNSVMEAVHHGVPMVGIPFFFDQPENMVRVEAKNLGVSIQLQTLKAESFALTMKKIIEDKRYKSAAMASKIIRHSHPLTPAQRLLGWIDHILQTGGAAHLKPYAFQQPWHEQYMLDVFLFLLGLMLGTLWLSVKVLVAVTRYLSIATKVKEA
# UniProt Q8R180: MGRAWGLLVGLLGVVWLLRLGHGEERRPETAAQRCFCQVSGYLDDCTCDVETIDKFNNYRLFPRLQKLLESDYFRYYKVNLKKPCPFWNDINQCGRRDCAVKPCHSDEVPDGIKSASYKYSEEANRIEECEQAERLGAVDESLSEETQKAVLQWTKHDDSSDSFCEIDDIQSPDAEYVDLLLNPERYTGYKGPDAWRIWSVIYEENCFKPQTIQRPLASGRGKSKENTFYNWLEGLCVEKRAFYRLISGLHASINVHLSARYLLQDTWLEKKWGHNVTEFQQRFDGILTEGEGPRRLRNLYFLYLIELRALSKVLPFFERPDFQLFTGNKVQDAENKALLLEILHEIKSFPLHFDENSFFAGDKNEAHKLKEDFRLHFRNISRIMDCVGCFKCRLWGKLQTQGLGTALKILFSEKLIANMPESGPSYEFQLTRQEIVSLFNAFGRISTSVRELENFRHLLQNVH
# UniProt Q8R404: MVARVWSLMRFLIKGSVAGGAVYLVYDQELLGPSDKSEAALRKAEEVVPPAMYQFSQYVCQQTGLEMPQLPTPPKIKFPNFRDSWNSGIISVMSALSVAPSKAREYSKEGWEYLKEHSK
# UniProt Q8K4G1: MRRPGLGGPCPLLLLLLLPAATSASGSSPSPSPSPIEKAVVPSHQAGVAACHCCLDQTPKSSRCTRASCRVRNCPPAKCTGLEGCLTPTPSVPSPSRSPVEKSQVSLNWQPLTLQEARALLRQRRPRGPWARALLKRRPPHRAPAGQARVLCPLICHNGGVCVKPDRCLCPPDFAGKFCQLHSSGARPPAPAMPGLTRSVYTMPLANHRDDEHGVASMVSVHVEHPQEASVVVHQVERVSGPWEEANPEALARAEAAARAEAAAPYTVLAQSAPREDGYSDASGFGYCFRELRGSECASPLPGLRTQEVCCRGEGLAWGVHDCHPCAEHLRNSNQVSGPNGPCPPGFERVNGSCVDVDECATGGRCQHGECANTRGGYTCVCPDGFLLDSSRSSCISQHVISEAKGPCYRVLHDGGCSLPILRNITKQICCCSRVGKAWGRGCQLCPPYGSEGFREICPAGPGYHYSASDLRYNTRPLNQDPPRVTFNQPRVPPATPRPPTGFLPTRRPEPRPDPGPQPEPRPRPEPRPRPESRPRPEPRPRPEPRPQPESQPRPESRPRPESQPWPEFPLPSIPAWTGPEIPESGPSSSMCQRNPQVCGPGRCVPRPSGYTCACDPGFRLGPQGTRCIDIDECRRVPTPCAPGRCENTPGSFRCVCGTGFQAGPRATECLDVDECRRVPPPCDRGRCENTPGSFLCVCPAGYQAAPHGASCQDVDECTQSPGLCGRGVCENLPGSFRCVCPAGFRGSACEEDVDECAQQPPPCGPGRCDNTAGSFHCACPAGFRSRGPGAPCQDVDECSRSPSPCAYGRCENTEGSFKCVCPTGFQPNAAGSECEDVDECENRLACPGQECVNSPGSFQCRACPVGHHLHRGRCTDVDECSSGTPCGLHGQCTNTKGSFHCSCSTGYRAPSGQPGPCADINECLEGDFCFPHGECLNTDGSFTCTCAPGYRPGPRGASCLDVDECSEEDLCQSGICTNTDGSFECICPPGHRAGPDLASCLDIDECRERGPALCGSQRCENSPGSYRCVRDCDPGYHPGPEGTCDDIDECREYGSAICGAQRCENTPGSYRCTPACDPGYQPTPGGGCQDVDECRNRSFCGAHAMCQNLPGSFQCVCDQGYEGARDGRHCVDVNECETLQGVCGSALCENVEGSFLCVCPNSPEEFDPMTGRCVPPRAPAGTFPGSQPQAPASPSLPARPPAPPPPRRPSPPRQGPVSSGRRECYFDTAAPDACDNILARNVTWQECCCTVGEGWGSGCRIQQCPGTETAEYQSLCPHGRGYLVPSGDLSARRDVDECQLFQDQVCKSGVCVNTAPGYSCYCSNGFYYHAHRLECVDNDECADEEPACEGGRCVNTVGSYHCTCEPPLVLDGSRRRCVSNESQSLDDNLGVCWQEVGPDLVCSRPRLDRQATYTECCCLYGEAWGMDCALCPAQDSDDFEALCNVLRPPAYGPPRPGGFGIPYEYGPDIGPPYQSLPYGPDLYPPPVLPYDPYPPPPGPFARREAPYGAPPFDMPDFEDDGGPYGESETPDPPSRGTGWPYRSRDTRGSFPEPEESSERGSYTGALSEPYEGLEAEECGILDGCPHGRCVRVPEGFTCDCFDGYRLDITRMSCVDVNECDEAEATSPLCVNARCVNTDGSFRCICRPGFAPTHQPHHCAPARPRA
# The other results are listed elsewhere or left out. Most entries show no effect beyond the scatter of the controls.
# Compound: CN[C@@H]1C[C@H]2O[C@@](C)([C@@H]1OC)n1c3ccccc3c3c4c(c5c6ccccc6n2c5c31)C(=O)NC4 [staurosporine]
# Assay: log2 fold change of pooled soluble protein (PISA), ligand vs vehicle (log2 ratio); higher = more thermally stabilized
# Settings: ligand concentration: 20 uM; assay format: PISA pool 52.9/55.5/58.6 C
row,Target,log2 fold change of pooled soluble protein
1,UniProt Q8R146,-0.0266
2,UniProt Q8CI75,-0.132
3,UniProt Q8K201,-0.101
4,UniProt Q8R0F6,-0.147
5,UniProt Q8CIZ8,0.00083
6,UniProt Q8R1S0,0.0405
7,UniProt Q8R3B7,0.0966
8,UniProt Q8K3J9,0.0222
9,UniProt Q8CGF5,0.0421
10,UniProt Q8VBT0,0.0923
11,UniProt Q8R3F5,0.0186
12,UniProt Q8K4F5,-0.015
13,UniProt Q8K2Q7,-0.0298
14,UniProt Q8R0V5,0.286
15,UniProt Q8CI08,-0.076
16,UniProt Q8K0H1,0.0323
17,UniProt Q8R0Z5,0.181
18,UniProt Q8JZN5,-0.0565
19,UniProt Q8R0W6,0.742

# Quoted at random: two entries already listed, in no set order.
row,Target,log2 fold change of pooled soluble protein
17,UniProt Q8R0Z5,0.181
13,UniProt Q8K2Q7,-0.0298

# Later entries.

row,Target,log2 fold change of pooled soluble protein
1,UniProt Q8K0C9,-0.179
2,UniProt Q8R0Y8,0.0659
3,UniProt Q8K4L3,0.0416
4,UniProt Q8R1T4,0.185
5,UniProt Q8JZZ0,0.00677
6,UniProt Q8K296,-0.174
7,UniProt Q8R081,-0.000463
8,UniProt Q8K3K8,0.00148
9,UniProt Q8R238,0.0118
10,UniProt Q8R180,0.341
11,UniProt Q8CGZ0,0.253
12,UniProt Q8R519,0.133
13,UniProt Q8R404,0.199
14,UniProt Q8CJG0,-0.124
15,UniProt Q8K1H7,0.189
16,UniProt Q8K2L8,-0.101
17,UniProt Q8K1E0,-0.163
18,UniProt Q8K441,0.0658
19,UniProt Q8K4G1,-0.0831
